Results deposited as PubChem BioAssay AID1259254 (NCATS, 2017).

- Assay: 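Finding genes that stop cells copying their DNA twice in one cycle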 (primary screen)
- Cells: human HCT116 colorectal cancer cells
- Reagents: single siRNA against human genes
- Timing: 3 days
- Measurement: 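Imaged Hoechst DNA stain sorts each cell into a cycle phase by DNA amount; per plate, G2 fraction set to 0% for non-targeting and 100% for GMNN siRNA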
- Direction: G2 robust z-score and G2 cells, % of GMNN control: higher = more G2 cells, more excess DNA replication; raw share of cells in G2: higher = larger share of cells with G2 DNA content
- Rule for the call: 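An siRNA counts as active if its G2 robust z-score lies at least 5 MADs above the screen median; here such calls match roughly 38% of GMNN control or more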
The whole screen tested about 59,000 reagents; this is an unselected part. About 1,550 of all reagents (2.6%) count as active. 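G2 share is only a proxy for re-replication; each gene was hit by three separate siRNAs, and active genes were retested.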 Raw values vary from plate to plate and are shown uncorrected. Entries without a mark were called inactive. The numbers tell different reagents against one gene apart. Not given: the amount of reagent.

Gene	siRNA no.	G2 robust z-score	G2 cells, % of GMNN control	raw share of cells in G2 (%)
ZNF420	1	-0.0159	2.86	4.07
ZNF420	2	4.19	32.4	14.4
ZNF420	3	-0.964	-3.81	2.19
CATSPERT	1	-0.476	-0.38	2.94
CATSPERT	2	-0.269	1.07	4.19
CATSPERT	3	-0.537	-0.811	2.66
JAK3	1	-0.336	0.601	5.81
JAK3	2	-0.448	-0.187	5.35
JAK3	3	0.0913	3.61	5.3
CPZ	1	2.06	17.4	11.6
CPZ	2	0.483	6.37	7.16
CPZ	3	0.464	6.23	6.23
LOC401068 (retired record)	1	-0.93	-3.58	2.51
LOC401068 (retired record)	2	-0.68	-1.82	2.8
LOC401068 (retired record)	3	0.325	5.26	6.97
PTPN1	1	-1.41	-6.93	2.54
PTPN1	2	0.586	7.09	6.44
PTPN1	3	1.18	11.3	6.88
RAB27B	1	-1.02	-4.2	2.75
RAB27B	2	1.16	11.1	8.81
RAB27B	3	-0.0461	2.64	5.69
DNAJB12	1	-0.118	2.14	3.55
DNAJB12	2	1.64	14.5	12.5
DNAJB12	3	-0.413	0.0639	3.65
TCL6	1	2.6	21.3	12.6
TCL6	2	1.15	11	6.73
TCL6	3	0.797	8.58	7.13
TESMIN	1	2.55	20.9	14.8
TESMIN	2	-0.746	-2.28	2.99
TESMIN	3	-1.08	-4.63	1.72
KRT35	1	-0.573	-1.06	3.81
KRT35	2	4.57	35.1	19.1
KRT35	3	1.03	10.2	8.74
LRIF1	1	4.38	33.8	17.5
LRIF1	2	-0.427	-0.0371	4.12
LRIF1	3	1.43	13.1	7.3
ACAP2	1	-0.5	-0.548	6.15
ACAP2	2	-0.32	0.715	4.39
ACAP2	3	-0.445	-0.162	3.81
KLF3	1	1.5	13.5	7.57
KLF3	2	-0.656	-1.65	5.16
KLF3	3	-0.702	-1.97	3.01
AHCYL2	1	-1.28	-6.04	3.95
AHCYL2	2	-0.724	-2.13	3.44
AHCYL2	3	-0.162	1.83	4.49
TMC6	1	0.639	7.46	7.91
TMC6	2	-0.326	0.672	4.41
TMC6	3	-0.574	-1.07	2.77

Reformatted: 2 of the entries above.
Gene | siRNA no. | G2 robust z-score | G2 cells, % of GMNN control | raw share of cells in G2 (%)
CATSPERT | 1 | -0.476 | -0.38 | 2.94
CATSPERT | 2 | -0.269 | 1.07 | 4.19
